Literature values as cited in patent US8865714B2, “Piperazine compound capable of inhibiting prostaglandin D synthase” (Taiho Pharmaceutical Co., Ltd., priority 2009, dated 2014).
For at least one compound, name, drawing or mass did not settle the structure.

Test system: metabolic syndrome in mice
Conditions: as disclosed in Patent Literature 3; cited from earlier work

For O=C(Nc1ccc(C(F)(F)F)cc1)N1CCN(C(=O)c2cccc(F)n2)CC1 [Reference Example 18, 4-(6-fluoropyridine-2-carbonyl)piperazine-1-carboxylic acid-(4-trifluoromethylphenyl)amide], the “effect against metabolic syndrome” value is listed as “effective against metabolic syndrome in mice”.
